Literature values, collected in US8475827B2, “Tissue implants for implantation and methods for preparing the same” (CryoLife, Inc., priority 2010, dated 2013).
For at least one compound, name, drawing or mass did not settle the structure.

Tested on: sensitive bacteria
Conditions: literature review

SMILES: C[C@H]1COc2c(N3CCN(C)CC3)c(F)cc3c(=O)c(C(=O)O)cn1c23 [levofloxacin]
- minimum inhibitory concentration against sensitive bacteria (MIC) range: 0.03 to 32 µg/mL
